The other results are listed elsewhere or left out. Single values of this set are uncertain.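 The cells are a human neuroglioma line carrying a green fluorescent autophagy reporter.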

In this assay the test system is H4 GFP-LC3. Description: cell viability (scaled to control) (fraction of control); higher = more viable cells. Particulars: 6 h.
Take `Cc1nc2c([nH]1)c(=O)n(C)c(=O)n2Cc1ccco1` (5 µM): the cell viability was determined as 1.02.
To `Nc1nc(NCCc2ccc(O)cc2)nc2nc(-c3ccco3)nn12` (5 µM) belongs 0.978.
To `C[C@H](NC[C@H](O)CP(=O)(O)Cc1ccccc1)c1ccc(Cl)c(Cl)c1` (5 µM) belongs 0.75; to `c1ccc(CN2CCC3(CCc4ccccc43)CC2)cc1` (5 µM), 0.922; to `CC(C)NCC(O)c1ccc(NS(C)(=O)=O)cc1` (stereo unspecified) (5 µM), 0.708.
Turning to `CCN(CC)CC1CCCCN1CC(=O)N1c2ccccc2C(=O)Nc2cccnc21` (stereo unspecified) (5 µM), the cell viability turned out to be 1.05.
In the case of `CC[C@H](C)[C@H](NC(=O)[C@H](CCCN=C(N)N)NC(=O)[C@H](CCCN=C(N)N)NC(=O)[C@H](CC(C)C)NC(=O)[C@H](Cc1ccccc1)NC(=O)CNC(=O)CNC(=O)[C@@H](N)Cc1ccc(O)cc1)C(=O)N[C@@H](CCCN=C(N)N)C(=O)N1CCC[C@H]1C(=O)O` (5 µM) it was 0.98; in that of `CC[N+]1(C)C2CCC1CC(OC(=O)C1CCC(C(=O)OC3CC4CCC(C3)[N+]4(C)CC)(c3ccccc3)c3ccccc31)C2` (stereo unspecified) (5 µM), 0.742; in that of `CC[C@@H]1C(=O)OC[C@@H]1Cc1cncn1C` (5 µM), 1.04.
In the case of `N=C(N)NCCC[C@H](NC(=O)[C@H](Cc1ccccc1)NC(=O)[C@@H]1CCCN1C(=O)[C@H](CO)NC(=O)[C@H](Cc1ccccc1)NC(=O)CNC(=O)[C@@H]1CCCN1C(=O)[C@@H]1CCCN1C(=O)[C@@H](N)CCCNC(=N)N)C(=O)O` (5 µM) it was 1.02; in that of `c1ccc(N2CCN(CCCOc3ccc4c(c3)OCO4)CC2)cc1` (5 µM), 0.811.

(Values after the supplement of paper PMC11659162.)
